Results from US20050084884A1.
No constants are given. Whether binding was seen depends on the method and setting. Binding seen in cells or lysates may run through a third protein. Some results given as binding are weak or reduced against the parent protein; the word gives no strength. Where a sequence is shown, tags or fusion partners need not be part of it.

By UniProt entry, the sequences of proteins in these tests, tags left out. Where a name states a change or a piece, a line headed by the entry shows the natural chain unless it says otherwise.
UniProt Q99558: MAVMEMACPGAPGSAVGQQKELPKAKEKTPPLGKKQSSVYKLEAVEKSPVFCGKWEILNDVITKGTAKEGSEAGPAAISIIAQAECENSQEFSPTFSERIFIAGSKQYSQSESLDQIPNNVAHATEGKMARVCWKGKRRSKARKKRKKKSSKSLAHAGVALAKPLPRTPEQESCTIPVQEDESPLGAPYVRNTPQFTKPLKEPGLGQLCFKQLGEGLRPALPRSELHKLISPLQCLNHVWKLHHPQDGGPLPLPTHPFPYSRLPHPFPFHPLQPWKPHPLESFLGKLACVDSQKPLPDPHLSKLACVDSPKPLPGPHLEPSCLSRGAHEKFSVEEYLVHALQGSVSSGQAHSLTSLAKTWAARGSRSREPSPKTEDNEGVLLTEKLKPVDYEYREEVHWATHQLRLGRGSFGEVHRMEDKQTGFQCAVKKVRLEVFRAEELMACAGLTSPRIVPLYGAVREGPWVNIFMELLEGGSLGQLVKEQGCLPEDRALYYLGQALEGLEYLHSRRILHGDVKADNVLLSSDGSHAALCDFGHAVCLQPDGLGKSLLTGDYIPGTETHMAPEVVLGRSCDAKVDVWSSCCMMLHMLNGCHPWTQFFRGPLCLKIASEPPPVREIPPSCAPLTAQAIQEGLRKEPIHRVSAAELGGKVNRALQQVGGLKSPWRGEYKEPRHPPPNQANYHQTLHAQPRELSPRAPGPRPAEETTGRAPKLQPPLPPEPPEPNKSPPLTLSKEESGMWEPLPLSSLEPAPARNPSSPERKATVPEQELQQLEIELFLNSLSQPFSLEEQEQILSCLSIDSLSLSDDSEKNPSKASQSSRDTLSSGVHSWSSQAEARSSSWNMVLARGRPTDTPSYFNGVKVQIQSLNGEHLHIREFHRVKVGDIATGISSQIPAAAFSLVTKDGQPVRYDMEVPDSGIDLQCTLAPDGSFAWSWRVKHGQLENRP
UniProt Q13233: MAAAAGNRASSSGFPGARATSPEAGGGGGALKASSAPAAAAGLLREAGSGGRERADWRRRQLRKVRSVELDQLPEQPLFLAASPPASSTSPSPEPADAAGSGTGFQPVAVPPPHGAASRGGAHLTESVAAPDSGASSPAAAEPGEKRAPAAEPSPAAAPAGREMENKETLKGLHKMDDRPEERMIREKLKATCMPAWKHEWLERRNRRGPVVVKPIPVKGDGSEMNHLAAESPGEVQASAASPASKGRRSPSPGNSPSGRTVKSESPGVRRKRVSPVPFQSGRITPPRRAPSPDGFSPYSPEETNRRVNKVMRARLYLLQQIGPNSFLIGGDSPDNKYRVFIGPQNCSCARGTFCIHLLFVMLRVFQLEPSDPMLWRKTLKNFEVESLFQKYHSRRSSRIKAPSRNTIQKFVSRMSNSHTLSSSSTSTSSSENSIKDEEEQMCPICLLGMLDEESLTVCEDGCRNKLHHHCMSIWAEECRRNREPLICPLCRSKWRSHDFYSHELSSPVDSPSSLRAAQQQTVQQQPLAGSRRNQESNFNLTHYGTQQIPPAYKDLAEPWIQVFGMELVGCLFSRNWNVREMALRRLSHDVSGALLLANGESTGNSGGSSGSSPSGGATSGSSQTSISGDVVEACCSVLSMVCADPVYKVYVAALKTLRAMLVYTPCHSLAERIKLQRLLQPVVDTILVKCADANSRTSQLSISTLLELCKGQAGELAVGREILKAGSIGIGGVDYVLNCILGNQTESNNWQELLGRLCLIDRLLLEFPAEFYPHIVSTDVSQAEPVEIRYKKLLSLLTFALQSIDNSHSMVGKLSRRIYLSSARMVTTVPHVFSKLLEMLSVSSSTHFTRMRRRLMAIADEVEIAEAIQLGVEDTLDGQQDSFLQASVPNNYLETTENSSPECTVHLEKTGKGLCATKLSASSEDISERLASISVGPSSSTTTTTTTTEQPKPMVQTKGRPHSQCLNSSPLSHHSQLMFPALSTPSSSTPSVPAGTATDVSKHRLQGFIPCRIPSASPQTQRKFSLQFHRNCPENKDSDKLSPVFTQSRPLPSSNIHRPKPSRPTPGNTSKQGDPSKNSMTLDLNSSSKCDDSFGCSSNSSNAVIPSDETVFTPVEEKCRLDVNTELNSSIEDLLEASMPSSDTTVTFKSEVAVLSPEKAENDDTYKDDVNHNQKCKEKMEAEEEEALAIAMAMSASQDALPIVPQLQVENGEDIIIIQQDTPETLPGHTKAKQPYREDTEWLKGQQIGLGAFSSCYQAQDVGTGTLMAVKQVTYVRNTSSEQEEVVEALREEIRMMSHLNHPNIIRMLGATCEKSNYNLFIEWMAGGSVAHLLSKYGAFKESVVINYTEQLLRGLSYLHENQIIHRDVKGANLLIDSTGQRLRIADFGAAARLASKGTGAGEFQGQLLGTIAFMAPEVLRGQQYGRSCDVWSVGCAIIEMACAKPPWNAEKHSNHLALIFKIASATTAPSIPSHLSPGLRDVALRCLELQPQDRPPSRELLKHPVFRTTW

Columns and labels:
myc-tagged IKK1 protein [1] = molecular target: T1, myc-tagged IKK1 protein (UniProt O15111); test: co-immunoprecipitation from transfected 293 cell lysates on anti-flag M2 resin, Western blot with anti-myc antibody (positive control)
T1 sequence (looked up): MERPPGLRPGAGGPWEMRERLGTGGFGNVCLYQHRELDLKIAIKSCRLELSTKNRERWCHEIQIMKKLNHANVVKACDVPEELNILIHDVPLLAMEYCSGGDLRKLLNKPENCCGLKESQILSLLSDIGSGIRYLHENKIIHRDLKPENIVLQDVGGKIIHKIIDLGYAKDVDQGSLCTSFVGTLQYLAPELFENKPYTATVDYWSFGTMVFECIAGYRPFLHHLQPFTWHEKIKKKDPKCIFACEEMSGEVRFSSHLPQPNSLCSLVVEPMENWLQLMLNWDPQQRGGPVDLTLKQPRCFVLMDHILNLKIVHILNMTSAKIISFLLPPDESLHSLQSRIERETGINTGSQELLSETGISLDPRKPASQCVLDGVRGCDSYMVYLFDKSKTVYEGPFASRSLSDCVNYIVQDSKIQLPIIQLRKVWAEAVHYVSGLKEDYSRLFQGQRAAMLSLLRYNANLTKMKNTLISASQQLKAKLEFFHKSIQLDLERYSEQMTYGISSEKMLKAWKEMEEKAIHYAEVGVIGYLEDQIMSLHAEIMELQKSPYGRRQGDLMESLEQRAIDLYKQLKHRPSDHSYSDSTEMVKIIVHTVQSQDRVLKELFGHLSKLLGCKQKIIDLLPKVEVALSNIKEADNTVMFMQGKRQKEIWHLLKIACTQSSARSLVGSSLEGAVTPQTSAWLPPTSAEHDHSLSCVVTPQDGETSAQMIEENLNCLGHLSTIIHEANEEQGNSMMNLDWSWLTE

myc-tagged IKK1 protein [2] = molecular target: T1, myc-tagged IKK1 protein; test: co-immunoprecipitation from transfected 293 cell lysates on anti-flag M2 resin, Western blot with anti-myc antibody

binding (myc-tagged IKK1 protein [1]) | binding (myc-tagged IKK1 protein [2]) | Substance
binds | – | flag-tagged NIK protein (from UniProt Q99558 1-947) (enzyme)
– | binds | C-terminal FLAG-tagged full-length human MEKK1 (from UniProt Q13233 1-1512) (enzyme)
